# Screening data, single-dose tests

Measurements from “University of Dundee, Small-Polar-MMV Screening Library” (2021), ChEMBL document CHEMBL3988442.

A: 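Growth of Mycobacterium tuberculosis over 3 days (7H9 medium with glucose and tyloxapol); the read-out is not stated. Concentration: 50 µM. Higher reads as more growth inhibition (inferred: compounds with an IC50 in retests scored well above the rest). About 69,000 compounds were tested under these conditions; 1.1% (about 760) showed 50% or more at least once.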
B: 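Growth of Mycobacterium tuberculosis over 4 days (cholesterol / DPPC medium with tyloxapol); the read-out is not stated. Concentration: 50 µM. Direction is inferred from retests: higher values go with more growth inhibition. Of about 69,000 compounds tested this way, about 370 (0.54%) reached 50% or more in at least one test.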

Values are the deposited “Percent Effect”, in %. How 0% and 100% were set is not recorded. Most values in the screen are low, and negative values occur. This is an unselected part of the compounds tested. Two or more numbers in one place are separate tests of the same structure; such repeats can differ widely.

- COCCN1CCCC12CCCN(c1nncs1)C2 (centres undefined) : A: -9.259% and -0.4829%; B: -8.038% and 2.904%
- Cc1cnc(C(=O)N2CCCC(n3cncn3)C2)cn1 (centres undefined) : A: 15.41%; B: -9.647%
- CC(C)C(O)CNC(=O)Nc1cccc(-c2nccs2)c1 (centres undefined) : A: -17.39%; B: 3.859%
- CSCC[C@H](N)c1nnc(SCC(=O)Nc2ccc(Br)cc2)o1.Cl : A: 12.85%; B: -2.769%
- CCOCCn1c(=O)[nH]c2cc(C(=O)N(C)Cc3ccno3)ccc21 : A: 4.466%; B: -5.9%
- CCCC(=O)Nc1ccc2c(c1)C1(CCOCC1)CN2CCOC.O=C(O)C(F)(F)F : A: -2.778%; B: -10.51%
- O=C(O)C(F)(F)F.O=C(O)C(F)(F)F.O=C1COC2(CCN(Cc3ccncc3)CC2)CN1c1ccccc1 : A: 9.894%; B: 19.03%
- Cc1cccc(OC2CCN(c3nc(N)nc4[nH]cnc34)CC2)c1 : A: -19.1%; B: -11.65%
- Cc1cc(C(=O)N2CCCCC2C)ccc1NCC(=O)N1CCOCC1 (centres undefined) : A: 7.231%; B: 2.835%
- CC(C)(C)c1ncc2c(n1)CN(C(=O)C(C)(C)n1cccc1)C2 : A: 16.23% and 12.38%; B: 21.29% and 14.31%
- CS(=O)(=O)N1CCN(C(=O)Cn2ccc3c(Cl)cccc32)CC1 : A: -36.07%; B: -30.07%
- CCS(=O)(=O)CCN(C)C(=O)NC(C)c1ccc(C)s1 (centres undefined) : A: -2.254%; B: -4.782%
- CCc1nnc(Nc2cccc(C3CCN(S(=O)(=O)N(C)C)CC3)n2)s1 : A: 6.155%; B: -8.685%
- N#CCc1ccc(NC(=O)N[C@H](CO)Cc2ccc(O)cc2)cc1 : A: -2.943% and 0.3465%; B: -2.992%
- CN(C)C(=O)C1CCCN1CCCNC(=O)c1cccc2[nH]ncc12 (centres undefined) : A: 12.69%; B: 6.193%
- Cc1cnn(CC2CCCN2C(=O)Cn2nc(C)c(Cl)c2C)c1 (centres undefined) : A: 0.659%; B: 7.399%
- CC1(c2ccccc2)CCC(=O)N(CCN2CCOC2=O)C1 (centres undefined) : A: 16.52%; B: 14.75%
- COc1ncccc1C(=O)N1CCCC(n2ccnc2C)C1 (centres undefined) : A: 13.41%; B: 1.873%
- O=C(O)C(F)(F)F.O=C(O)C(F)(F)F.[H][C@]12C[C@@H](Cn3cncn3)N(C(C)=O)[C@@]1([H])CCN(Cc1ccncc1)C2 : A: 6.006% and -6.602%; B: 0.9234%
- CCSc1ccc(C(=O)N2CC[C@](O)(CC)[C@H](O)C2)s1 : A: 1.371% and 4.444%; B: -6.422%
- O=c1oc(-c2ccc(F)cc2)nn1CCc1ccncc1 : A: -36%; B: -6.608% and 3.697%
- CCc1nsc(N2CCC3(CC2)OCCO3)n1 : A: 9.098%; B: 0.2593% and 5.947%
- O=C(NCC1CCS(=O)(=O)C1)N(Cc1ccccn1)C1CC1 (centres undefined) : A: 23.46%; B: -4.302%
- O=C(O)C(F)(F)F.O=C(O)C(F)(F)F.[H][C@@]12OCCN(Cc3ccc(F)cc3)[C@@]1([H])CC[C@H]2OCc1ccncc1 : A: 33.26%; B: 20.48%
- [H][C@]12CC[C@]([H])(CN(Cc3ccccc3)C1)N(C(=O)Nc1ccccc1)C2 : A: 11.1%; B: 25.7%
- CC(=O)N1CCC(Oc2ccc(C#N)cc2)CC1 : A: -7.591% and -13.78%; B: -5%
- NS(=O)(=O)Cc1ccc(CNC(=O)NCC2CCOC2)cc1 (centres undefined) : A: -2.734%; B: -35.42%
- Cn1nc(CN2CCC(c3ccncc3)CC2)c2c(Cl)cccc21 : A: 13.46%; B: 22.1%
- Cc1c(CC(C#N)C(=O)Nc2cccc(O)c2)cnn1C (centres undefined) : A: -2.296% and -3.455%; B: -1.944%
- CNc1cc(N2CCCC2CNCc2ccc(C)o2)ncn1 (centres undefined) : A: 10.05%; B: -50.17%
- CC(C)(C)NC(=O)CNc1ccc(C#N)c(C(F)(F)F)c1 : A: 25.28%; B: 22.23%
- c1ccc(CCc2n[nH]c(C3CCOC3)n2)cc1 (centres undefined) : A: 7.948%; B: 2.476%
- CC(C)CN(CC(C)C)Cn1ncc2cn(-c3ccccc3)nc2c1=O : A: -12.54%; B: 1.781%

Some entries from above, unchanged:

* c1ccc(CCc2n[nH]c(C3CCOC3)n2)cc1 (centres undefined) | A: 7.948%; B: 2.476%
* CC1(c2ccccc2)CCC(=O)N(CCN2CCOC2=O)C1 (centres undefined) | A: 16.52%; B: 14.75%
* CCOCCn1c(=O)[nH]c2cc(C(=O)N(C)Cc3ccno3)ccc21 | A: 4.466%; B: -5.9%